Reference: publication doi:10.1101/2024.03.28.587165
Results are given in words; binding and its absence hold for the method and conditions named. Binding can be weak; no strength is given.

Chains of the proteins cited; added tags and fusions are not shown. Lines headed by an entry give the natural chain unless they say otherwise; changes in a name come on top.
UniProt Q9SAF2: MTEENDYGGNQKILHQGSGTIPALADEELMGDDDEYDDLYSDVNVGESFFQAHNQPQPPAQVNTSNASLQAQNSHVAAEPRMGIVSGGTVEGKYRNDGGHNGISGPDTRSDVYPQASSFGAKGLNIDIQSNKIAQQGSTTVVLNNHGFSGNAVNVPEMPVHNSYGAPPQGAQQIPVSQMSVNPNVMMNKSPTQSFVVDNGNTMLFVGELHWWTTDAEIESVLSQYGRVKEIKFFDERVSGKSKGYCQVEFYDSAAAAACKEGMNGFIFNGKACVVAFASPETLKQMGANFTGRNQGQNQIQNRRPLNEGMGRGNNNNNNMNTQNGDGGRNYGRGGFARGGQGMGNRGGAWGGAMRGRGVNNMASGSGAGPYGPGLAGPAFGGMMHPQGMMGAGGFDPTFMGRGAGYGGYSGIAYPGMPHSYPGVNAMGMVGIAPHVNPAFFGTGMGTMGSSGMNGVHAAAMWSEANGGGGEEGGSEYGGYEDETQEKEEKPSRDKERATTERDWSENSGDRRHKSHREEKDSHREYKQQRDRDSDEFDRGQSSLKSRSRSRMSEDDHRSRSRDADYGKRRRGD
UniProt Q8GXS3: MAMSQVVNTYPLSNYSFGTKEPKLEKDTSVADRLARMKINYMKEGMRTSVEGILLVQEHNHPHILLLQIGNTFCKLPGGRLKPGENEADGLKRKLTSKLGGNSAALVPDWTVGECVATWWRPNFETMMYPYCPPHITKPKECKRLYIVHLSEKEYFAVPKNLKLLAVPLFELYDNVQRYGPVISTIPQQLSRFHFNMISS

Biological target: GST-tagged AtCFI59 (Arabidopsis thaliana) (UniProt Q9SAF2)
Experiment: pull-down

binding: binds
Substance: HIS-tagged AtCFI25a (from UniProt Q8GXS3)
